{
  "sequences": {"note": "Chains of the proteins cited; added tags and fusions are not shown.", "UniProt P11531": "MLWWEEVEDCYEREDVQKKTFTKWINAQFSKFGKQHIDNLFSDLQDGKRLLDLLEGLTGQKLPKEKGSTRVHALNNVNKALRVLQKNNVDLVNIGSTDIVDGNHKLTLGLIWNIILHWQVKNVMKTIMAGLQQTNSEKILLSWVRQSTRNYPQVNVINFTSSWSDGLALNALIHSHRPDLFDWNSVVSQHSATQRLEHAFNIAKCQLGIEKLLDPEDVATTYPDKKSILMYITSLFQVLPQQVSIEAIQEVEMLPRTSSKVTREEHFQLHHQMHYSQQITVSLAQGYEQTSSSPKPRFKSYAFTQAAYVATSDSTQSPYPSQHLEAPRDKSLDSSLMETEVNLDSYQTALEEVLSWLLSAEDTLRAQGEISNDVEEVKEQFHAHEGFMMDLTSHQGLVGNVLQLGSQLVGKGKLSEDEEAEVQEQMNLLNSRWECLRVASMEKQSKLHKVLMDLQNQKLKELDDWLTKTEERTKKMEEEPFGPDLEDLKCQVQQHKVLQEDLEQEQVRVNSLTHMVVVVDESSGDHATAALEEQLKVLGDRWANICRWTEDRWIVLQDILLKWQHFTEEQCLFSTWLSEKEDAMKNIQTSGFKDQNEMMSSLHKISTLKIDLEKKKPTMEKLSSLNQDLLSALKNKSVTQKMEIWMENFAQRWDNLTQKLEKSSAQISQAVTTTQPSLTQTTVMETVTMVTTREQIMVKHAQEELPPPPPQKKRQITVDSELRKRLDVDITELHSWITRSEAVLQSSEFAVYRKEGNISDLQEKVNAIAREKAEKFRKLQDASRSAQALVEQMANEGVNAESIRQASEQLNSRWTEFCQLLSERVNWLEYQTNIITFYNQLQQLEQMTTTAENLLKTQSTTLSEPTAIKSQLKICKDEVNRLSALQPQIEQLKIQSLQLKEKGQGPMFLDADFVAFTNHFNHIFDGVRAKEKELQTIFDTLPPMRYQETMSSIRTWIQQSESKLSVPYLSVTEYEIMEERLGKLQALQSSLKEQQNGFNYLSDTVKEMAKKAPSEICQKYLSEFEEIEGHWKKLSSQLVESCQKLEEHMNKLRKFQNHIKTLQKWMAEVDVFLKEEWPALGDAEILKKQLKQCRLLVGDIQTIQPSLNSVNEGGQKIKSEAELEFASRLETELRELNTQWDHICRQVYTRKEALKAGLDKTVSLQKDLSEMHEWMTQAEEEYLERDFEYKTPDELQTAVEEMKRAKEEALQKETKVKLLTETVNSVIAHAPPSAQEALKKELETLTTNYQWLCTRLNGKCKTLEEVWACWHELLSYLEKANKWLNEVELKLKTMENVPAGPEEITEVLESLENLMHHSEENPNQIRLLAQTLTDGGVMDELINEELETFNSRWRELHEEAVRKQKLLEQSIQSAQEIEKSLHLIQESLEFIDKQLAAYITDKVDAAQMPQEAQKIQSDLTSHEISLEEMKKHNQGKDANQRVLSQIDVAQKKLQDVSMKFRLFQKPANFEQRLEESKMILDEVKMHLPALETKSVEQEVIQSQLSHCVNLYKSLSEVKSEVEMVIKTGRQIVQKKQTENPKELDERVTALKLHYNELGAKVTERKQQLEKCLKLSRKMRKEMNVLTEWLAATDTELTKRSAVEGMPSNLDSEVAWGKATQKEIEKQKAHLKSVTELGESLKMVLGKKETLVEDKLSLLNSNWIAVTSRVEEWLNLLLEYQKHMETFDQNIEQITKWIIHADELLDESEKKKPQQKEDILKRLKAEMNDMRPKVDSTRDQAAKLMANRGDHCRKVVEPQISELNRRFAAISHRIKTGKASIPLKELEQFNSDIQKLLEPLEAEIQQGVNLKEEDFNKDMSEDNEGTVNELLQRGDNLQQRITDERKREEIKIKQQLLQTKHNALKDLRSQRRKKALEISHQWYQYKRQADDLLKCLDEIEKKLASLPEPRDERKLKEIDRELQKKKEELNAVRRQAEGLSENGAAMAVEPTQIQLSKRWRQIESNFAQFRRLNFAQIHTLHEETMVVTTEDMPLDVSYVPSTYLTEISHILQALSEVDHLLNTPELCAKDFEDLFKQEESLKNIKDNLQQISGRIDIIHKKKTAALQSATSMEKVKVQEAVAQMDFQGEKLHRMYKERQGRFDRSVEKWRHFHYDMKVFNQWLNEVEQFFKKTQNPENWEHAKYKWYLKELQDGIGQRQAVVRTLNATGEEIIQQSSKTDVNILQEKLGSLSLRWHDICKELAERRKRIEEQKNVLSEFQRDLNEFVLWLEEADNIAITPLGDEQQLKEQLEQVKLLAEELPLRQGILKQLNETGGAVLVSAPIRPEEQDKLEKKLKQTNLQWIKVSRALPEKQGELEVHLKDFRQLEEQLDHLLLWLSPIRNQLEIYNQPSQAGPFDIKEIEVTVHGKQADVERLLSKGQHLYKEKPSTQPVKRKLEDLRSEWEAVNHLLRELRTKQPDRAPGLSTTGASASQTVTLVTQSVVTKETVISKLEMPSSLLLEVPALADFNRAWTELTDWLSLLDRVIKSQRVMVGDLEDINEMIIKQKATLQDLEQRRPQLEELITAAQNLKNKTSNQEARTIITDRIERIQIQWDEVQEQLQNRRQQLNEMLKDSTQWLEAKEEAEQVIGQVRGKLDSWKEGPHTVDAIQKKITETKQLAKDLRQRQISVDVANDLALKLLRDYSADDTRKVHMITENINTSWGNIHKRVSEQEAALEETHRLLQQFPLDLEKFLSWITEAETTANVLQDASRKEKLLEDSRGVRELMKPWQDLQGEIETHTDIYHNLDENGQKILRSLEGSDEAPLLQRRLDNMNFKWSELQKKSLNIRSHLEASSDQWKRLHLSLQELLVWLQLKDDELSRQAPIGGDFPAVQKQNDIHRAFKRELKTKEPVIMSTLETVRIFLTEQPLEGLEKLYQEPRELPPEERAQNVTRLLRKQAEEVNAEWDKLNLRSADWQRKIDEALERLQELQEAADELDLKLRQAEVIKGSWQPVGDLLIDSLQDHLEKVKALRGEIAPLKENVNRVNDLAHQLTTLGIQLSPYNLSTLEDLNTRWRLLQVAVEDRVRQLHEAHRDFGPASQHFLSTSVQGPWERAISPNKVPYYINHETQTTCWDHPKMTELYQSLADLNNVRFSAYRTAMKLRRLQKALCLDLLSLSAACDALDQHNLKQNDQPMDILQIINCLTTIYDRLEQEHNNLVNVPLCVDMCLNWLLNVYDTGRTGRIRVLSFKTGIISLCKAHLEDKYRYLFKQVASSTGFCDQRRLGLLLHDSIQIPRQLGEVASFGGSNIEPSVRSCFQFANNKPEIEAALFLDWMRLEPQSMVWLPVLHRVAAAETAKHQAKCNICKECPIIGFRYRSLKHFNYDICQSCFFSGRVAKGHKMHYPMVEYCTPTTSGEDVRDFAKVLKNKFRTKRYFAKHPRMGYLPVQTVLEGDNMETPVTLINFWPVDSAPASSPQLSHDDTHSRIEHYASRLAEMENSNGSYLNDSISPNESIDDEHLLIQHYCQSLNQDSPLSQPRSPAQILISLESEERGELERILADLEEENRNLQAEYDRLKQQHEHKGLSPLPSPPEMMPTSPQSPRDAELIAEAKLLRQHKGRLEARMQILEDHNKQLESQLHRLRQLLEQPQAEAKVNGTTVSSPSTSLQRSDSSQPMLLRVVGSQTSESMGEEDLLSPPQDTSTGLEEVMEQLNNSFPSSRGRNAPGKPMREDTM", "UniProt P68368": "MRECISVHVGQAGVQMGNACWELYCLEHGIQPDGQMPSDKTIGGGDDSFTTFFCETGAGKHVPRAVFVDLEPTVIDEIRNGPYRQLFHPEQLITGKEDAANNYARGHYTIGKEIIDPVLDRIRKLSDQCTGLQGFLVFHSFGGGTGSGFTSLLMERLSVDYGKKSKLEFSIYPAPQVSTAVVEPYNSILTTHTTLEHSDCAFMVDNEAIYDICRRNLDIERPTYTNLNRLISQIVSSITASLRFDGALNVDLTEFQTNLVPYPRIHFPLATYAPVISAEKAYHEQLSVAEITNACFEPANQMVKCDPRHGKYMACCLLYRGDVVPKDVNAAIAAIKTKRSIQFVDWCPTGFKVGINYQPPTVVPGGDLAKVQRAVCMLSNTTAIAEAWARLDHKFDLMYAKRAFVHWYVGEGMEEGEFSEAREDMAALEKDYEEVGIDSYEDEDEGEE", "UniProt Q9Z0J4": "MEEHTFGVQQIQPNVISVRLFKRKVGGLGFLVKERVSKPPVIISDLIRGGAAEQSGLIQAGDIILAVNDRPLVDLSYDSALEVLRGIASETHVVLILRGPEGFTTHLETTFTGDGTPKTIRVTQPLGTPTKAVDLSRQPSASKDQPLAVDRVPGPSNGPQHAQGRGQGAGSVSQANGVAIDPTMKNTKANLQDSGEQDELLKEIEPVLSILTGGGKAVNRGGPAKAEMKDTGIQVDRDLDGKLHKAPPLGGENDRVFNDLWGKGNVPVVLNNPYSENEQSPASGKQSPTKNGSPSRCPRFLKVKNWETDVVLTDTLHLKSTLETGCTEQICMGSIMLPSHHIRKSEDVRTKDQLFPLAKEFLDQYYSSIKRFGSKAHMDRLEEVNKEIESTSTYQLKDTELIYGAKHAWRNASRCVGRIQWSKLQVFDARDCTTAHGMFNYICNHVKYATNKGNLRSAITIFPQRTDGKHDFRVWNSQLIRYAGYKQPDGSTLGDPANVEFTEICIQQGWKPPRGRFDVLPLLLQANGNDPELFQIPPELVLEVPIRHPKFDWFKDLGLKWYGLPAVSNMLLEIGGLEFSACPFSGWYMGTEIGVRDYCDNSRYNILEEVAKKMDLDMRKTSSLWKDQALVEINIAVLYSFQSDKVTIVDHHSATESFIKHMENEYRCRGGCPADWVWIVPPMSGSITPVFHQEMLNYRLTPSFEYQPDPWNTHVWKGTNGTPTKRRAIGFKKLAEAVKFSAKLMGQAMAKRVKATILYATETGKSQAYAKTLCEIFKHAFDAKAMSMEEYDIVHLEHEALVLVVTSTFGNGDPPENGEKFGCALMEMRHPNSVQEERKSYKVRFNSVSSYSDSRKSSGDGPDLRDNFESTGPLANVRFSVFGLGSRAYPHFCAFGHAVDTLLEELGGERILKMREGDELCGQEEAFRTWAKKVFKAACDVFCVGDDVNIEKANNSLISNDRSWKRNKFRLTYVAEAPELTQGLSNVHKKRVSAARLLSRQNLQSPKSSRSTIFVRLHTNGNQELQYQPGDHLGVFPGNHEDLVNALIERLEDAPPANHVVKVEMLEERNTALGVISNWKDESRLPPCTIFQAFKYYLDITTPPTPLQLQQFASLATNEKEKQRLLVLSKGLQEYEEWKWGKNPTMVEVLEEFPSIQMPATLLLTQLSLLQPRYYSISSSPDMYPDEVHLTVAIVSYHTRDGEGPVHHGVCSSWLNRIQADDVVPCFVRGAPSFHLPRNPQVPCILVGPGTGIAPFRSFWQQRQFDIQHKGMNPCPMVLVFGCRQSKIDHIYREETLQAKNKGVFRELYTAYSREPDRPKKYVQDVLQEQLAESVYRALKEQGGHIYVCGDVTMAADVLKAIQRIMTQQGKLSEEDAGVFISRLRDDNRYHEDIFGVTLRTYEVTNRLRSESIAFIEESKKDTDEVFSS"},
  "source": "paper PMC8255133",
  "note": "These are yes or no findings as the source states them, for the method shown. Binding seen in cells or lysates may run through a third protein. Here binding means that the protein was enriched with, or labelled near, the bait; the list need not be complete. For some of these results: A no says only that the protein was not detected with the bait.",
  "data": [
    {"molecular_target": "dystrophin (full-length) (mouse (endogenous in heart)) (UniProt P11531)", "experiment": "affinity purification with mass spectrometry; MANEX1011B IPs of dystrophin from wild-type hearts (N = 3) and of μDys from μDYS-mdx^5cv hearts (N = 3), protein identification by MS, label-free emPAI; proteins found in control IPs (mdx^5cv, N = 3; MW8 on wild-type, N = 1) excluded", "settings": "not given", "values": [
      {"molecule": "Ahnak1 (from UniProt E9Q616 1-5656)", "binding": "binds"},
      {"molecule": "tubulin α4A (from UniProt P68368 1-448)", "binding": "no binding"},
      {"molecule": "neuronal nitric oxide synthase (from UniProt Q9Z0J4 1-1429) (enzyme)", "binding": "no binding"},
      {"molecule": "cavin-1 (full-length) (protein, UniProt O54724 1-392) MEDVTLHIVERPYSGFPDASSEGPEPTQGEARATEEPSGTGSDELIKSDQVNGVLVLSLLDKIIGAVDQIQLTQAQLEERQAEMEGAVQSIQGELSKLGKAHATTSNTVSKLLEKVRKVSVNVKTVRGSLERQAGQIKKLEVNEAELLRRRNFKVMIYQDEVKLPAKLSVSKSLKESEALPEKEGDELGEGERPEDDTAAIELSSDEAVEVEEVIEESRAERIKRSGLRRVDDFKKAFSKEKMEKTKVRTRENLEKTRLKTKENLEKTRHTLEKRMNKLGTRLVPVERREKLKTSRDKLRKSFTPDHVVYARSKTAVYKVPPFTFHVKKIREGEVEVLKATEMVEVGPEDDEVGAERGEATDLLRGSSPDVHTLLEITEESDAVLVDKSDSD", "binding": "binds"},
      {"molecule": "cavin-2 (protein, UniProt Q63918 1-418) MGEDAAQAEKFQHPNTDMLQEKPSSPSPMPSSTPSPSLNLGSTEEAIRDNSQVNAVTVHTLLDKLVNMLDAVRENQHNMEQRQINLEGSVKGIQNDLTKLSKYQASTSNTVSKLLEKSRKVSAHTRAVRERLERQCVQVKRLENNHAQLLRRNHFKVLIFQEESEIPASVFVKEPVPSAAEGKEELADENKSLEETLHNVDLSSDDELPRDEEALEDSAEEKMEESRAEKIKRSSLKKVDSLKKAFSRQNIEKKMNKLGTKIVSVERREKIKKSLTPNHQKASSGKSSPFKVSPLSFGRKKVREGESSVENETKLEDQMQEDREEGSFTEGLSEASLPSGLMEGSAEDAEKSARRGNNSAVGSNADLTIEEDEEEEPVALQQAQQVRYESGYMLNSEEMEEPSEKQVQPAVLHVDQTA", "binding": "binds"},
      {"molecule": "cavin-4 (protein, UniProt A2AMM0 1-362) MEHNGSASNAGKIHQNRLSSVTEDEDQDAALTIVTVLDRVASVVDSVQASQKRIEERHREMGNAIKSVQIDLLKLSQSHSNTGYVVNKLFEKTRKVSAHIKDVKARVEKQQVRVTKVETKQEEIMKKNKFRVVIFQEDIPCPASLSVVKDRSLPENQEEAEEVFDPPIELSSDEEYYVEESRSARLRKSGKEHIDHIKKAFSRENMQKTRQTLDKKVSGIRTRIVTPERRERLRQSGERLRQSGERLRQSGERFKKSISSAAPSKEAFKIRSLRKAKDPKAEGQEVDRGMGVDIISGSLALGPIHEFHSDEFSETEKEVTKGGYSPQEGGDPPTPEPLKVTFKPQVRVEDDESLLLELKQSS", "binding": "binds"},
      {"molecule": "cavin-3 (protein, UniProt Q91VJ2 1-260) MGESALEPGPVPETPAGGPVHAVTVVTLLEKLATMLEALRERQGGLAERQGGLAGSVRRIQSGLGALSRSHDTTSNTLTQLLAKAERVGSHADAAQERAVRRAAQVQRLEANHGLLVARGKLHVLLFKEETEIPARAFQKVPELLGPEDQLVLGPDQPEDEVGESSEEEPVESRAQRLRRTGLQKVQSLKRALSSRKAAQPTPVKPPRVGPVRSSEGPSEGQPAAQPEMESELETALEPEPPQPTKEDPEKPVLQIESAA", "binding": "binds"},
      {"molecule": "α1-syntrophin (protein, UniProt Q61234 1-503) MASGRRAPRTGLLELRCGAGSGAGGERWQRVLLSLAEDALTVSPADGEPGPEPEPAQLNGAAEPGAAPPQLPEALLLQRRRVTVRKADAGGLGISIKGGRENKMPILISKIFKGLAADQTEALFVGDAILSVNGEDLSSATHDEAVQALKKTGKEVVLEVKYMKEVSPYFKNSAGGTSVGWDSPPASPLQRQPSSPGPQPRNLSEAKHVSLKMAYVSRRCTPTDPEPRYLEICAADGQDAVFLRAKDEASARSWAGAIQAQIGTFIPWVKDELQALLTATGTAGSQDIKQIGWLTEQLPSGGTAPTLALLTEKELLFYCSLPQSREALSRPTRTAPLIATSSAHRLVHSGPSKGSVPYDAELSFALRTGTRHGVDTHLFSVESPQELAAWTRQLVDGCHRAAEGIQEVSTACTWNGRPCSLSVHIDKGFTLWAAEPGAARAMLLRQPFEKLQMSSDDGTSLLFLDFGGAEGEIQLDLHSCPKTMVFIIHSFLSAKVTRLGLLA", "binding": "binds"},
      {"molecule": "caveolin-3 (protein, UniProt P51637 1-151) MMTEEHTDLEARIIKDIHCKEIDLVNRDPKNINEDIVKVDFEDVIAEPEGTYSFDGVWKVSFTTFTVSKYWCYRLLSTLLGVPLALLWGFLFACISFCHIWAVVPCIKSYLIEIQCISHIYSLCIRTFCNPLFAALGQVCSNIKVVLRREG", "binding": "no binding"}
    ]},
    {"molecular_target": "dystrophin (full-length) (mouse (endogenous in heart)), P11531", "experiment": "affinity purification with mass spectrometry; MANEX1011B IPs of dystrophin from wild-type hearts (N = 3) and of μDys from μDYS-mdx^5cv hearts (N = 3), protein identification by MS, label-free emPAI; proteins found in control IPs (mdx^5cv, N = 3; MW8 on wild-type, N = 1) excluded", "settings": "remark: other sources report otherwise", "values": [
      {"molecule": "β2-syntrophin, Q61235 1-520 (protein) MAVWTRATKAGLVELLLRERWVRVVAELSGESLSLTGDAAAVEPEPPAAAFNGLPNGGGGESLPGSPNRGLGPPSPPAPPRGPAGEASASPPVRRVRVVKQEAGGLGISIKGGRENRMPILISKIFPGLAADQSRALRLGDAILSVNGTDLRQATHDQAVQALKRAGKEVLLEVKFIREVTPYIKKPSLVSDLPWEGASPQSPSFSGSEDSGSPKHQNTTKDRKVIPLKMCFAARNLSMPDLENRLIELHSPDSRNTLILRCKDTATAHSWFVAIHTNIMALLPQVLAELNAMLGATSTAGGSKEVKHIAWLAEQAKLDGGRQQWRPVLMAVTEKDLLLYDCMPWTRDAWASPCHSYPLVATRLVHSGSGCRSPSLGSDLTFATRTGSRQGIEMHLFRVETHRDLSTWTRILVQGCHAAAELIKEVSLGCTLSGQEVRFTVHYEHGFTITRDNGGASSILYRYPFERLKMSADDGIRNLYLDFGGPEGELTMDLHSCPKPIVFVLHTFLSAKVTRMGLLV", "binding": "binds"}
    ]}
  ]
}
